# Source: PMC8170045
# By UniProt entry, the sequences of proteins in these tests, tags left out. Where a name states a change or a piece, a line headed by the entry shows the natural chain unless it says otherwise.
# UniProt P12814: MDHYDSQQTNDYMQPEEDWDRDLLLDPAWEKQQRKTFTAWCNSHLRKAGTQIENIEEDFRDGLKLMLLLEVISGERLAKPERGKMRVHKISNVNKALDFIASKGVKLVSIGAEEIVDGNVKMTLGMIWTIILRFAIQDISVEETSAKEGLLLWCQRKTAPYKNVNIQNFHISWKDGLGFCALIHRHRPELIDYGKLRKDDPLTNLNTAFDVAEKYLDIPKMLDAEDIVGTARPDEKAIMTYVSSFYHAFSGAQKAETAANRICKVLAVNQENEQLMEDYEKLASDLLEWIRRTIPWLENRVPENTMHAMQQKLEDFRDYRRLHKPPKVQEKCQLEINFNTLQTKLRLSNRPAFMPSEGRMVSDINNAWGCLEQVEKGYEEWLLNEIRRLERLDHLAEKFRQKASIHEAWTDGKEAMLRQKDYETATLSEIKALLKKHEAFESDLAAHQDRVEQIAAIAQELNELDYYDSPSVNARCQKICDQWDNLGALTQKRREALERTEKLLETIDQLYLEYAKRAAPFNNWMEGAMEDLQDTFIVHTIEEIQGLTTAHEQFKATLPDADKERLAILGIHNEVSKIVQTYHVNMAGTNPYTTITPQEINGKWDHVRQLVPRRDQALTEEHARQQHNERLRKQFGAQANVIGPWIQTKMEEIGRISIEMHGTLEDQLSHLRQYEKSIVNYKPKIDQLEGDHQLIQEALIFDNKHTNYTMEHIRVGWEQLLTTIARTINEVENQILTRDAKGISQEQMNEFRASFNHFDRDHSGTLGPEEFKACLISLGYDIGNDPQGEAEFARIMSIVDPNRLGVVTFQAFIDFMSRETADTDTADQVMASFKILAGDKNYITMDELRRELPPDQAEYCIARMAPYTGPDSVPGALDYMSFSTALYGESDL
# UniProt P21333: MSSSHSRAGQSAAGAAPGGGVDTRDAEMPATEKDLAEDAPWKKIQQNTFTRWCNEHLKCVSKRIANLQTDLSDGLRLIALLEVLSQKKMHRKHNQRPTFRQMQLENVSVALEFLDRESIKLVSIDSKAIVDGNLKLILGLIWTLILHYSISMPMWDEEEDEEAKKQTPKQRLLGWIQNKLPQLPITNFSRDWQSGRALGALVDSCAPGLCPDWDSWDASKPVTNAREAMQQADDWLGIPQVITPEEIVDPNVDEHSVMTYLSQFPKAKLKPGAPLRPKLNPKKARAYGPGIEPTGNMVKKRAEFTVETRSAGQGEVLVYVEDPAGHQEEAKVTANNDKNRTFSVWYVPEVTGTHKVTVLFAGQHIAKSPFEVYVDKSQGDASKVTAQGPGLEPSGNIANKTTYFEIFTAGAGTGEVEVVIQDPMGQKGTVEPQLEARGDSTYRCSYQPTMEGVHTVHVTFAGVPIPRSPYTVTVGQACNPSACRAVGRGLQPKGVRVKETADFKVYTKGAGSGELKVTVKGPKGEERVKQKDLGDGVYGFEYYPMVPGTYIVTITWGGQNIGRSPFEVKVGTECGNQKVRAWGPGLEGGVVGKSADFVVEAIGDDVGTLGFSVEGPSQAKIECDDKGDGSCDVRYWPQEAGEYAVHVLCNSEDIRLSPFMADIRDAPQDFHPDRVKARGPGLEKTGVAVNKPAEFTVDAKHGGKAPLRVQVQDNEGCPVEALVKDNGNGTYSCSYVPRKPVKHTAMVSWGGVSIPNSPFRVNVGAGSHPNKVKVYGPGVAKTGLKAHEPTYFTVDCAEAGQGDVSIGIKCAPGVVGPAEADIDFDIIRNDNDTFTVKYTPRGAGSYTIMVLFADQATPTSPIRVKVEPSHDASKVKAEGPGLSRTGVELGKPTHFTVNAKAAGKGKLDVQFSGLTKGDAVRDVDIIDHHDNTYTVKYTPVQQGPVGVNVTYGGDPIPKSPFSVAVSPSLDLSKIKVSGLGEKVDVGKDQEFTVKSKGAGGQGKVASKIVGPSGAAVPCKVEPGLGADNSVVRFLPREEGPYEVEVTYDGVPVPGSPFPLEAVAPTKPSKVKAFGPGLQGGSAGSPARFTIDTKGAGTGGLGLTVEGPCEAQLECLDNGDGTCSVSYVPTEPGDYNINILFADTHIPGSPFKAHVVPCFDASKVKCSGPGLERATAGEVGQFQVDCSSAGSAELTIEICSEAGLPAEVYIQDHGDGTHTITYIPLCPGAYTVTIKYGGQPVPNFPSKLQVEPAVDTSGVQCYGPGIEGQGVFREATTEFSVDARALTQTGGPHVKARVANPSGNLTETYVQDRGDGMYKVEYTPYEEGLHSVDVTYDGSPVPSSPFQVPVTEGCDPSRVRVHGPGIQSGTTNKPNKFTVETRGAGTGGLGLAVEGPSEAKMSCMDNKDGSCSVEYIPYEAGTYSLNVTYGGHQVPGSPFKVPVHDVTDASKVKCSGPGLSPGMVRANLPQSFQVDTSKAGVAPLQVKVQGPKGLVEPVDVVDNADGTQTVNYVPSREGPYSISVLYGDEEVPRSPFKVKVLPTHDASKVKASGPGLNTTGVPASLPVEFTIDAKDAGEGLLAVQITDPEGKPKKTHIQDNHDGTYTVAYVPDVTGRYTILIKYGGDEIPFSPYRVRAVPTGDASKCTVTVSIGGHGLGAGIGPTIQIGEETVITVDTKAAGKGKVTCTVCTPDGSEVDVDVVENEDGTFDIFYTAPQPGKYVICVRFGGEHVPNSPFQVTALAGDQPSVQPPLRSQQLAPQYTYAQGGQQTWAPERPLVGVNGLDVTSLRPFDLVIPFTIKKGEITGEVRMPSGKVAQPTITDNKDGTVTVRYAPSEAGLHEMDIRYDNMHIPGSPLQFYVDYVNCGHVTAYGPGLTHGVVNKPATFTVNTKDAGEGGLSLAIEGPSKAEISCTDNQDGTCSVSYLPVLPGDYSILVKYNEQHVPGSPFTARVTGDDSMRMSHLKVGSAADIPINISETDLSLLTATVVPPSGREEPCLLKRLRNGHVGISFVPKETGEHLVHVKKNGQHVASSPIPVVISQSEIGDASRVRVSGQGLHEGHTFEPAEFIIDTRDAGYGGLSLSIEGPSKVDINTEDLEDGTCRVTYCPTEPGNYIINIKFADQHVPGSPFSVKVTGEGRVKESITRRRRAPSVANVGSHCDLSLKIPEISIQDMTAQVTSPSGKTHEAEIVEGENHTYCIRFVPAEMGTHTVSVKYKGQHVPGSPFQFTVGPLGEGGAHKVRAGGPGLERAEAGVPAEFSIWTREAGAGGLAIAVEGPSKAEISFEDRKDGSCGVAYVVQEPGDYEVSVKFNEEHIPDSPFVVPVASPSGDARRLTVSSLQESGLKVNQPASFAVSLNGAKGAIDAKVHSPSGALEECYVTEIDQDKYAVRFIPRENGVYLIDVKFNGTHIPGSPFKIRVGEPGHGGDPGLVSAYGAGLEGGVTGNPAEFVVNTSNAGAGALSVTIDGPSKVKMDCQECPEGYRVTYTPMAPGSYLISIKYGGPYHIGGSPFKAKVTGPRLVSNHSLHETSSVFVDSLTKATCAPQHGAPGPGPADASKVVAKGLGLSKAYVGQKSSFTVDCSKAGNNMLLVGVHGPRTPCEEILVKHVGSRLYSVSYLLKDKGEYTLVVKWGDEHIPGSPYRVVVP
# UniProt P05556: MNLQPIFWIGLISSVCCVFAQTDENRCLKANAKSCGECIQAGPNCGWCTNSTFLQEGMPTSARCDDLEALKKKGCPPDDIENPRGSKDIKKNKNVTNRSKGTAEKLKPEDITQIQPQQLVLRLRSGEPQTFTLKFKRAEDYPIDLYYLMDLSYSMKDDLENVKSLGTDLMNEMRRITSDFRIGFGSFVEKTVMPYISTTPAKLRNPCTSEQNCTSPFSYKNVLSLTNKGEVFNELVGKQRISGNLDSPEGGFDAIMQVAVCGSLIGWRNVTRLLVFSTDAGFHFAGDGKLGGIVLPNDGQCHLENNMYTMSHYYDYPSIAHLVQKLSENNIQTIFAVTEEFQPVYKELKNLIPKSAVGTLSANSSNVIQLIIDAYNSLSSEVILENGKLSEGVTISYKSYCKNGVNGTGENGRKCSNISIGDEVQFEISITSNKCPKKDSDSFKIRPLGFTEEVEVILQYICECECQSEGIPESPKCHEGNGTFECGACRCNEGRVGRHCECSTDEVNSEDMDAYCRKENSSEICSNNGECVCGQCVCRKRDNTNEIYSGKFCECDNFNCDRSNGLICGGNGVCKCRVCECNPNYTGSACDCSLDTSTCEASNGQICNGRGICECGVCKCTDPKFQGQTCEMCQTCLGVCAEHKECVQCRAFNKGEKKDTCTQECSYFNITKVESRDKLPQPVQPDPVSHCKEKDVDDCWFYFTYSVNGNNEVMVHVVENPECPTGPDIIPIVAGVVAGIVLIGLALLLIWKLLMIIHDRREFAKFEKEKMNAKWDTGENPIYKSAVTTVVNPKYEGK
# UniProt O14950: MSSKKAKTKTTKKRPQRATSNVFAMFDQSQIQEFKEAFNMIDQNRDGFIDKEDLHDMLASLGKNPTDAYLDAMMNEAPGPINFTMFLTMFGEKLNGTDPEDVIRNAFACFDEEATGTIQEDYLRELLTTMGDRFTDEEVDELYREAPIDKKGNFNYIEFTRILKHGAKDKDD
# Results are given in words; binding and its absence hold for the method and conditions named. Binding seen in cells or lysates may run through a third protein. Here binding means that the protein was enriched with, or labelled near, the bait; the list need not be complete. Sequences can lack the tags named with a protein.
# T1: DCBLD2 with double label of Flag-strep (UniProt Q96PD2)
# T1 sequence: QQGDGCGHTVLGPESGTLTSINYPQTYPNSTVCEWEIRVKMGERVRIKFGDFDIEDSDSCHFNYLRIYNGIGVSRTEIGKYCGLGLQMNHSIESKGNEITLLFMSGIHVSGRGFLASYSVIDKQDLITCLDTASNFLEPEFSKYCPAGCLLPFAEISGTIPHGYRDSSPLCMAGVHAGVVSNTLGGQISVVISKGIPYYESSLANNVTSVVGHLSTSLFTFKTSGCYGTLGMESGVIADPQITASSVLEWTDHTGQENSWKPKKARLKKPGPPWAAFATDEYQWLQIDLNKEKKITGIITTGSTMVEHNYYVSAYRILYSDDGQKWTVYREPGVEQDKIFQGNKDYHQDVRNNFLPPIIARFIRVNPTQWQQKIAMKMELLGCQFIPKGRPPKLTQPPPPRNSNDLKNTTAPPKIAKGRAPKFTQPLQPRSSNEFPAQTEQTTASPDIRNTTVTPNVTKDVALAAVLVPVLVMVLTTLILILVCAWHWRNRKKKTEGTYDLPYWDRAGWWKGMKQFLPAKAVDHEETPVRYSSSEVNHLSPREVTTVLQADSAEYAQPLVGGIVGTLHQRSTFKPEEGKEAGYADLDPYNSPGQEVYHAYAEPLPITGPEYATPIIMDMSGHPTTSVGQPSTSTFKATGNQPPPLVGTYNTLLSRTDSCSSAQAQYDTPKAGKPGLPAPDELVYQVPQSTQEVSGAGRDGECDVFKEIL
# Molecular target: T1, DCBLD2 with double label of Flag-strep
# Assay: affinity purification with mass spectrometry; TAP-MS: Flag-strep DCBLD2 overexpressed in HCT116 by lentivirus; lysate purified in two steps by streptactin resin and anti-flag antibody; eluates digested with trypsin, LC-MS/MS; proteins of the control group subtracted
row,Molecule,binding
1,ACTN1 (from UniProt P12814 1-892),binds
2,FLNA (from UniProt P21333 1-2647),binds
3,ITGB1 (from UniProt P05556 21-798),binds

# Second part, the molecule after the results:
row,binding,Molecule
1,binds,MYL12B (from UniProt O14950 1-172)
2,binds,"SHC1 (protein, UniProt P29353 1-583) MDLLPPKPKYNPLRNESLSSLEEGASGSTPPEELPSPSASSLGPILPPLPGDDSPTTLCSFFPRMSNLRLANPAGGRPGSKGEPGRAADDGEGIVGAAMPDSGPLPLLQDMNKLSGGGGRRTRVEGGQLGGEEWTRHGSFVNKPTRGWLHPNDKVMGPGVSYLVRYMGCVEVLQSMRALDFNTRTQVTREAISLVCEAVPGAKGATRRRKPCSRPLSSILGRSNLKFAGMPITLTVSTSSLNLMAADCKQIIANHHMQSISFASGGDPDTAEYVAYVAKDPVNQRACHILECPEGLAQDVISTIGQAFELRFKQYLRNPPKLVTPHDRMAGFDGSAWDEEEEEPPDHQYYNDFPGKEPPLGGVVDMRLREGAAPGAARPTAPNAQTPSHLGATLPVGQPVGGDPEVRKQMPPPPPCPGRELFDDPSYVNVQNLDKARQAVGGAGPPNPAINGSAPRDLFDMKPFEDALRVPPPPQSVSMAEQLRGEPWFHGKLSRREAEALLQLNGDFLVRESTTTPGQYVLTGLQSGQPKHLLLVDPEGVVRTKDHRFESVSHLISYHMDNHLPIISAGSELCLQQPVERKL"
